Reference: PMC7418987, “NHD2-15, a novel antagonist of Growth Factor Receptor-Bound Protein-2 (GRB2), inhibits leukemic proliferation” (PLoS ONE, 2020)
These are yes or no findings as the source states them, for the method shown. Some binding calls cover weakened binding; strength is not graded here.

The chains behind the UniProt entries cited, without tags or fusion partners.
UniProt P62993: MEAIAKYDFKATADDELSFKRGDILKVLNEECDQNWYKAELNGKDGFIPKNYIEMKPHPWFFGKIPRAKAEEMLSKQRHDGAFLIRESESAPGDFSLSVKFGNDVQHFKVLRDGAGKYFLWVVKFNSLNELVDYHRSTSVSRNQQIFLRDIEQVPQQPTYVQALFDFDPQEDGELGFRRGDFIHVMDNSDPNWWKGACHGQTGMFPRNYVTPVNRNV

Target: T1, GRB2 SH2 domain-binding peptide (biotin-Aha-PSpYVNVQN)
T1 sequence (peptide, phosphotyrosine (pY, third residue of the peptide); biotin-Aha on the N-terminus): PSYVNVQN
Experiment: ELISA; competition ELISA: biotinylated peptide (100 nM, TBS pH 7.5) on streptavidin-coated plates; GST-GRB2 20 nM with competitor (NHD2-15 or free peptide) in SuperBlock, 1 h at 37°C; detected with anti-GST-HRP, absorbance at 450 nm; both purified

binding: binds
Substance: GST-GRB2 (growth factor receptor-bound protein-2) (from UniProt P62993 1-217)
